Measured values: patent US12102619B2 (Jazz Pharmaceuticals Research UK Limited, priority 2020, dated 2024)

Assay: Solubility of the CBD drug substance in water
Type: physicochemical
Description: Sesame oil was selected as an excipient to solubilize the drug substance. A sweetener and fruit flavoring are required to improve palatability of the sesame oil solution. Ethanol was required to solubilize the sweetener and the flavoring. The composition can be substantially equivalent, by which is meant that the function ingredients can vary from the qualitative composition specified in Table 6 by an amount up to 10%.

C=C(C)[C@@H]1CCC(C)=C[C@H]1c1c(O)cc(CCCCC)cc1O [CBD, Cannabidiol]
Solubility in water: insoluble in water
